Our source for the survivor count values is PubChem BioAssay AID330 (DTP/NCI, 2004).

This test deals with P388 leukemia ip, CD2F1 mice, survival T/C. Description: NCI In Vivo Anticancer Drug Screen. Data for tumor model P388 Leukemia (intraperitoneal) in CD2F1 (CDF1) mice. As to conditions: T/C endpoint: median survival time, higher T/C = longer survival.
Setting [1] is: dose: 100.0 mg/kg/injection, schedule: Q01DX005 (ip), vehicle: saline with Tween-80.
Setting [2] is: dose: 200.0 mg/kg/injection, schedule: Q01DX005 (ip), vehicle: saline with Tween-80.
Where [3] appears, read: dose: 400.0 mg/kg/injection, schedule: Q04DX003 (ip), vehicle: saline with Tween-80.
The mark [4] stands for this setting: dose: 100.0 mg/kg/injection, schedule: Q01DX009 (ip), vehicle: saline with Tween-80.

Molecules are shown by their SMILES. The list is a part of this screen's results and no random one: it is rich in T/C values a quarter to a half above the control, in often repeated tests (any T/C) and in doses without a T/C. Other doses and runs of a compound stand elsewhere. T/C is the treated group as % of the vehicle group. Some entries give survivors of the animals treated and no T/C: the source holds a T/C of zero for them, seemingly a mark for toxic or unscored doses. Some doses without a T/C left all or most animals alive at the check, yet need not have been tolerated: survival well below the control is almost never listed, so the zero probably covers shortened survival too. Survivors were counted at the toxicity check, usually on the fifth day, unless a day is given; later deaths do not show. Schedules are NCI's codes, taken here to give the interval after Q, in days (D) or hours (H), and the number of doses after X.

For the molecule `CCCCCCCCCCCC[N+]1(CC)CCCC1`, the survivor count was 4 of 6 (dose: 0.78 mg/kg/injection, schedule: Q01DX009 (ip), vehicle: saline); 2 of 6 (dose: 12.5 mg/kg/injection, schedule: Q01DX009 (ip), vehicle: saline); 0 of 6 (dose: 50.0 mg/kg/injection, schedule: Q01DX009 (ip), vehicle: saline); 0 of 6 (dose: 100.0 mg/kg/injection, schedule: Q01DX009 (ip), vehicle: saline); 0 of 6 (dose: 200.0 mg/kg/injection, schedule: Q01DX009 (ip), vehicle: saline).
With `Nc1cccc(C(=O)c2ccc(N)c(N)c2)c1`, the survivor count (dose: 240.0 mg/kg/injection, schedule: Q01DX005 (ip), vehicle: saline with Tween-80) is reported as 6 of 6.
As for `CC1=C(C)CN(CCc2c[nH]c3ccccc23)C(C#N)C1` (stereo unspecified), the survivor count under setting [1] is 0 of 5 and the survivor count under setting [2] is 0 of 5.
For the molecule `C=CC1CC[N-]CC1.[Cl][Cu][Cl]`, the survivor count (dose: 30.0 mg/kg/injection, schedule: Q01DX005 (ip), vehicle: saline) was 0 of 6; the survivor count (dose: 60.0 mg/kg/injection, schedule: Q01DX005 (ip), vehicle: saline) is on record as 0 of 6; the survivor count (dose: 120.0 mg/kg/injection, schedule: Q01DX005 (ip), vehicle: saline) is 0 of 6; the survivor count (dose: 240.0 mg/kg/injection, schedule: Q01DX005 (ip), vehicle: saline) is 0 of 6.
As for `COc1ccc(CC2c3ccccc3CC[N+]2(C)C)cc1Oc1ccc(CC2c3ccccc3CC[N+]2(C)C)cc1` (stereo unspecified), the survivor count is 0 of 6 (dose: 6.25 mg/kg/injection, schedule: Q04DX003 (ip), vehicle: saline with Tween-80); 0 of 6 (dose: 12.5 mg/kg/injection, schedule: Q04DX003 (ip), vehicle: saline with Tween-80); 0 of 6 (dose: 25.0 mg/kg/injection, schedule: Q04DX003 (ip), vehicle: saline with Tween-80); 0 of 6 (dose: 100.0 mg/kg/injection, schedule: Q04DX003 (ip), vehicle: saline with Tween-80); 0 of 6 (dose: 200.0 mg/kg/injection, schedule: Q04DX003 (ip), vehicle: saline with Tween-80); 0 of 6 under setting [3].
With `CC(C)NCC(O)COc1cccc2ccccc12` (stereo unspecified), the survivor count (dose: 128.0 mg/kg/injection, schedule: Q01DX009 (ip), vehicle: Klucel (hydroxypropylcellulose) (HPC)) is 0 of 6.
In the case of `CC(C)(C)c1ccc(OP(=S)(N/N=C/c2ccccc2O)Oc2ccc(C(C)(C)C)cc2)cc1`, the survivor count under setting [4] is reported as 6 of 6.
For `CC(C)c1cccc(C(C)C)c1NC(=O)Nc1cccc(C(F)(F)F)c1`, the survivor count is 6 of 6 (dose: 60.0 mg/kg/injection, schedule: Q01DX005 (ip), vehicle: Klucel (hydroxypropylcellulose) (HPC)) and 6 of 6 (dose: 120.0 mg/kg/injection, schedule: Q01DX005 (ip), vehicle: Klucel (hydroxypropylcellulose) (HPC)).
With `CCN(CC)CCCC(C)N(C)CC(C)CCC1=C(C)CCCC1(C)C` (stereo unspecified), the survivor count reads like this: (dose: 50.0 mg/kg/injection, schedule: Q01DX005 (ip), vehicle: saline) 3 of 5; (dose: 100.0 mg/kg/injection, schedule: Q01DX005 (ip), vehicle: saline) 0 of 5; (dose: 200.0 mg/kg/injection, schedule: Q01DX005 (ip), vehicle: saline) 0 of 5.
As for `CS1=C2C(=O)CC(C)(C)CC2=Nc2ccccc21` (stereo unspecified), the survivor count is, setting by setting: under setting [1], 0 of 6; under setting [2], 0 of 6.
Regarding `CNCCCC12CC(c3ccccc31)c1ccccc12`, the survivor count is reported as 6 of 6 under setting [4] and 3 of 6 (dose: 200.0 mg/kg/injection, schedule: Q01DX009 (ip), vehicle: saline with Tween-80).
For the molecule `O=C(Nc1ccc(Br)c2c(NC(=O)c3ccccc3)ccc(Br)c12)c1ccccc1`, the survivor count runs as follows: (dose: 6.25 mg/kg/injection, schedule: Q01DX009 (ip), vehicle: saline with Tween-80) 6 of 6; (dose: 12.5 mg/kg/injection, schedule: Q01DX009 (ip), vehicle: saline with Tween-80) 6 of 6; (dose: 25.0 mg/kg/injection, schedule: Q01DX009 (ip), vehicle: saline with Tween-80) 6 of 6; (dose: 50.0 mg/kg/injection, schedule: Q01DX009 (ip), vehicle: saline with Tween-80) 6 of 6; under setting [4], 6 of 6.
On to `Fc1ccccc1CSc1ncnc2nc[nH]c12`, for which the survivor count reads like this: (dose: 300.0 mg/kg/injection, schedule: Q04DX003 (ip), vehicle: saline with Tween-80) 2 of 6; under setting [3], 1 of 6.
